Measured values reported in the supplement of paper PMC8007513.
This is one part of the list. Single values are uncertain, as repeats are few or missing.

What follows are compounds tested on Saccharomyces cerevisiae BY4743 (assay: growth (OD600) with compound + IPBC relative to untreated control; higher = less growth inhibition). Settings: compound concentration: 133 uM; IPBC concentration: 0.5 ug/ml; 20 h.
Method: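 NMCCC compounds (133 uM) combined with IPBC (0.5 ug/ml) against Saccharomyces cerevisiae BY4743 in YPD, 96-well plates. Growth was read as OD600 at 20 h and expressed as % of the untreated control. Single pass.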

| SMILES | growth |
| --- | --- |
| CCOC(=O)c1cn(Cc2ccccc2)nc1-c1ccccc1OC + CCCCNC(=O)OCC#CI [3-iodo-2-propynyl butylcarbamate (IPBC)] | 92.6% |
| CCOC(=O)C(NC(=O)c1ccco1)(Nc1sc2c(c1C(=O)OC)CCCC2)C(F)(F)F (stereo not drawn) + CCCCNC(=O)OCC#CI [3-iodo-2-propynyl butylcarbamate (IPBC)] | 97.4% |
| CC1C\N=C(\NC2=NC=CC=C2C)S1 (stereo not drawn) + CCCCNC(=O)OCC#CI [3-iodo-2-propynyl butylcarbamate (IPBC)] | 81.1% |
| COC(=O)c1sc(-n2cccc2)c(C(=O)OC)c1C + CCCCNC(=O)OCC#CI [3-iodo-2-propynyl butylcarbamate (IPBC)] | 98.4% |
| CN(C)C(=O)C(OC(=O)c1ccc2c(c1)CCC(=O)N2)c1ccccc1 (stereo not drawn) + CCCCNC(=O)OCC#CI [3-iodo-2-propynyl butylcarbamate (IPBC)] | 93.6% |
| CCn1c(NC(=O)c2cc(Cl)c(OC)c(OC)c2)nc2ccccc21 + CCCCNC(=O)OCC#CI [3-iodo-2-propynyl butylcarbamate (IPBC)] | 102% |
| Cc1noc2ncnc(NC(C)CCc3ccccc3)c12 (stereo not drawn) + CCCCNC(=O)OCC#CI [3-iodo-2-propynyl butylcarbamate (IPBC)] | 106% |
| CC(C)[C@H](NC(=O)Cc1ccccc1)C(=O)OCC(=O)N1CCN(c2cccc(Cl)c2)CC1 + CCCCNC(=O)OCC#CI [3-iodo-2-propynyl butylcarbamate (IPBC)] | 88.3% |
